The assay concerns the target Cna1-GFP fusion protein (calcineurin catalytic subunit A) (C. deneoformans) (UniProt Q9Y879). Briefly: affinity purification with mass spectrometry.

Results are given in words; binding and its absence hold for the method and conditions named. In cells and extracts the contact can be indirect. A yes stands for co-enrichment or nearness to the bait. Other partners may have been found.

B1: Cnb1 (calcineurin regulatory subunit B) (protein, UniProt P0CM54 1-175)
chain: MGAAESSMFNSLEKNSNFSGPELMRLKKRFMKLDKDGSGSIDKDEFLQIPQIANNPLAHRMIAIFDEDGSGTVDFQEFVGGLSAFSSKGGRDEKLRFAFKVYDMDRDGYISNGELYLVLKQMVGNNLKDQQLQQIVDKTIMEADKDGDGKLSFEEFTQMVASTDIVKQMTLEDLF
Turning to B1, the binding result is recorded as “binds”.
